The experiment concerns E. coli JJ1886 (JJ, resistant). Conditions: 20% D2O.

In the case of `O=C(O)c1cn(C2CC2)c2cc(N3CCNCC3)c(F)cc2c1=O` [ciprofloxacin], the “change of average molecular weight of PE 32:1 with culture time” value (10 μg/mL, 30 min to two hours) was “increases”. The “concentration up to which the molecular weight of PE 32:1 remains consistent (no decrease in deuterium labeling)” value (two-hour culture, resistant strain) was found to be 80 µg/mL.

The record behind these values is patent US20230332203A1, “RAPID ANTIBIOTIC SUSCEPTIBILITY TESTING” (IOWA STATE UNIVERSITY RESEARCH FOUNDATION, INC., priority 2022, published 2023).
